Values joined by “and” are separate entries in the source; they are usually repeats but may differ in a detail not shown here. Equal entries are not always repeated.
System: patients with acute non-cardioembolic ischemic stroke
Conditions: in vivo

SMILES: CC[C@@H](C(=O)Nc1ccc(C(N)=O)c(F)c1)n1cc(OC)c(-c2cc(Cl)ccc2-n2cc(C(F)(F)F)nn2)cc1=O [Compound A, (4S)-2^4-chloro-4-ethyl-7^3-fluoro-3^5-methoxy-3^2,5-dioxo-14-(trifluoromethyl)-3^2H-6-aza-3(4,1)-pyridina-1(1)-[1,2,3]triazola-2(1,2),7(1)-dibenzenaheptaphane-7^4-carboxamide]
- Incident covert brain infarcts on MRI, n participants: 63 and 74
- Recurrent symptomatic ischemic stroke, incident covert brain infarct on MRI, cardiovascular death, myocardial infarction and systemic embolism, n participants: 80 and 87 and 81
- Recurrent symptomatic ischemic stroke, vascular death, or myocardial infarction, % participants: (7%)
- Recurrent symptomatic ischemic stroke, vascular death, or myocardial infarction, n participants: 33 and 30
